Experimental data reported in article PMC4593030.
These are yes or no findings as the source states them, for the method shown. For some assays here: Binding seen in cells or lysates may run through a third protein. Some binding calls cover weakened binding; strength is not graded here. Where a sequence is shown, tags or fusion partners need not be part of it. Values belong to the binder of their own block, whether it stands above or below them.

Columns and labels:
[1] = biological target: T1, FLAG-tagged SETD7 (SET domain containing lysine methyltransferase 7) (human) (UniProt Q8WTS6); experiment: co-IP; Anti-DDK (FLAG) magnetic beads; lysates of HEK293 cells cotransfected with FLAG-tagged SETD7 and untagged NFE2L2, precleared; incubated overnight at 4 °C; western blot with anti-NFE2L2
T1 sequence: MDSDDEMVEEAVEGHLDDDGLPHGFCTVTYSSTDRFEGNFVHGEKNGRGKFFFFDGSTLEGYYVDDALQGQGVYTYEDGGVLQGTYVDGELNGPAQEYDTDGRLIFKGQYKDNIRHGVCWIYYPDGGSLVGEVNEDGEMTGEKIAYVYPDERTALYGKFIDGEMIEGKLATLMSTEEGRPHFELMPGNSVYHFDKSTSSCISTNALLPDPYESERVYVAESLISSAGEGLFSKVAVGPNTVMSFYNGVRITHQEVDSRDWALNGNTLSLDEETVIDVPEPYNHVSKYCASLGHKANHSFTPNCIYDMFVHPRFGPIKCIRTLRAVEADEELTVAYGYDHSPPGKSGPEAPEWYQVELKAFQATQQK

[2] = biological target: T2, FLAG-tagged human NFE2L2 recombinant protein (human) (UniProt Q16236); experiment: pull-down; FLAG-tagged NFE2L2 held on Anti-DDK magnetic beads (1 hour, room temperature); GST-tagged SETD7 added for another hour at room temperature; 4 washes; western blot with anti-SETD7 and anti-NFE2L2; cell-free; both purified
T2 sequence: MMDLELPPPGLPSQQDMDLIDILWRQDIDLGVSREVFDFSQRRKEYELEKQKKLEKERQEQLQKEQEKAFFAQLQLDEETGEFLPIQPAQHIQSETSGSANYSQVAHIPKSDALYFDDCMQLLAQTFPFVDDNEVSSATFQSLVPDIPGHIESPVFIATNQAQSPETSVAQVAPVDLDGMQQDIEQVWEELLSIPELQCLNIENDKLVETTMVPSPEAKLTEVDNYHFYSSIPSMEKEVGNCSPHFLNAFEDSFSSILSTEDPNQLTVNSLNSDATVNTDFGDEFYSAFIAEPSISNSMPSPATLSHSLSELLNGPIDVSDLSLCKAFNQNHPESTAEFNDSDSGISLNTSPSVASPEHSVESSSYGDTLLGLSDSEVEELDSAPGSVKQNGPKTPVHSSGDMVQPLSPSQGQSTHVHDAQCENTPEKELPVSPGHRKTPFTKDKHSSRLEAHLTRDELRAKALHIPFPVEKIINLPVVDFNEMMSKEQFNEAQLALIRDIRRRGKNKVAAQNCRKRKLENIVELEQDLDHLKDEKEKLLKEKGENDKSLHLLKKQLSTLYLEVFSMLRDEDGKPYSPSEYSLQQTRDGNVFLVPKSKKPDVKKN

binding [1]: binds
B1: NFE2L2 (nuclear factor erythroid 2-like 2), untagged (protein, UniProt Q16236 1-605)
chain: T2 sequence

binding [2]: binds
B2: GST-tagged human SETD7 recombinant protein (enzyme, UniProt Q8WTS6 1-366)
chain: T1 sequence
